Experimental data as given in patent publication US20010018511A1.
Results are given in words; binding and its absence hold for the method and conditions named. Some results given as binding are weak or reduced against the parent protein; the word gives no strength.

Chains of the proteins cited; added tags and fusions are not shown. Lines headed by an entry give the natural chain unless they say otherwise; changes in a name come on top. A line that says so, or that is headed by a name, gives the form on record, which may keep a tag or linker.
MBP-hdm2 (clone 4, MBP-MVRSRQ-M1...N221) (Q00987, form named): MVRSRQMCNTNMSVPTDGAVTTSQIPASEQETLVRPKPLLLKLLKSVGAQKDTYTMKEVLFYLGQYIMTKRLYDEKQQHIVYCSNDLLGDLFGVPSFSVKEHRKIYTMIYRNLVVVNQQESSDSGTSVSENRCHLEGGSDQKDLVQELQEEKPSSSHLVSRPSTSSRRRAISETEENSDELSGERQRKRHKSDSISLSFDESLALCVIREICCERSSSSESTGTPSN

Experiments:
[1] = molecular target: MBP-hdm2 (clone 4, MBP-MVRSRQ-M1...N221) (human) (UniProt Q00987); assay: single clone phage ELISA on coated antigen
[2] = molecular target: TRX-hdm2 (thioredoxin-hdm2 fusion) (human) (UniProt Q00987); assay: phage ELISA, phage and fusion protein in solution, capture by anti-mdm2 antibodies
[3] = molecular target: MBP-hdm2 (clone 4, MBP-MVRSRQ-M1...N221) (human) (UniProt Q00987); assay: as above

Row | Binder | binding [1] | binding [2] | binding [3]
1 | PAFSRFWSDLSAGAH (peptide, not shown: large carriers) [phage clone BB3] | binds | binds | binds
2 | TGPAFTHYWATF (peptide, not shown: large carriers) [phage clone 12/5] | binds |  | 
3 | VQNFIDYWTQQF (peptide, not shown: large carriers) [phage clone 12/2] | binds |  | 
4 | MPRFMDYWEGLN (peptide, not shown: large carriers) [phage clone 12/1] | binds |  | 
5 | PRPALVFADYWETLY (peptide, not shown: large carriers) [phage clone 15/5] | binds |  | 
6 | IDRAPTFRDHWFALV (peptide, not shown: large carriers) [phage clone 15/1] | binds |  | 
